± gives the standard deviation of the averaged measurements. Some of the results follow.
Compound: Nc1nc2c(ncn2[C@@H]2O[C@H](COP(=O)(O)OP(=O)(O)OP(=O)(O)O)[C@@H](O)[C@H]2O)c(=O)[nH]1 [guanosine triphosphate]
Test: NP40-soluble protein abundance relative to vehicle (solubility fold change) (ratio); higher = more soluble protein in presence of GTP
Procedure: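 Solubility proteome profiling in Jurkat crude lysate. Lysate was treated with Mg-GTP (0.1-10 mM) for 10 min at room temperature and 3 min at 37 °C, then solubilised with 0.8% NP40 and benzonase, followed by ultracentrifugation. Proteins were quantified by TMT10 LC-MS/MS; the value is the NP40-soluble abundance relative to the NP40-processed vehicle, from 3 independent experiments.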

Amino acid sequences for entries named in this document (tags omitted). A change or cut given only in a name is not applied to a line headed by its entry.
UniProt P60953, whole entry, looked up: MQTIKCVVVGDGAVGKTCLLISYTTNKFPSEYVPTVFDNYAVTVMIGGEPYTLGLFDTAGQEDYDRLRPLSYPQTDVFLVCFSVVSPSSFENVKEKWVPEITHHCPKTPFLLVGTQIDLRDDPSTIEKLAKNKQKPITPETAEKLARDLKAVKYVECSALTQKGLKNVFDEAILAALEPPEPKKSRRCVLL
UniProt P78347: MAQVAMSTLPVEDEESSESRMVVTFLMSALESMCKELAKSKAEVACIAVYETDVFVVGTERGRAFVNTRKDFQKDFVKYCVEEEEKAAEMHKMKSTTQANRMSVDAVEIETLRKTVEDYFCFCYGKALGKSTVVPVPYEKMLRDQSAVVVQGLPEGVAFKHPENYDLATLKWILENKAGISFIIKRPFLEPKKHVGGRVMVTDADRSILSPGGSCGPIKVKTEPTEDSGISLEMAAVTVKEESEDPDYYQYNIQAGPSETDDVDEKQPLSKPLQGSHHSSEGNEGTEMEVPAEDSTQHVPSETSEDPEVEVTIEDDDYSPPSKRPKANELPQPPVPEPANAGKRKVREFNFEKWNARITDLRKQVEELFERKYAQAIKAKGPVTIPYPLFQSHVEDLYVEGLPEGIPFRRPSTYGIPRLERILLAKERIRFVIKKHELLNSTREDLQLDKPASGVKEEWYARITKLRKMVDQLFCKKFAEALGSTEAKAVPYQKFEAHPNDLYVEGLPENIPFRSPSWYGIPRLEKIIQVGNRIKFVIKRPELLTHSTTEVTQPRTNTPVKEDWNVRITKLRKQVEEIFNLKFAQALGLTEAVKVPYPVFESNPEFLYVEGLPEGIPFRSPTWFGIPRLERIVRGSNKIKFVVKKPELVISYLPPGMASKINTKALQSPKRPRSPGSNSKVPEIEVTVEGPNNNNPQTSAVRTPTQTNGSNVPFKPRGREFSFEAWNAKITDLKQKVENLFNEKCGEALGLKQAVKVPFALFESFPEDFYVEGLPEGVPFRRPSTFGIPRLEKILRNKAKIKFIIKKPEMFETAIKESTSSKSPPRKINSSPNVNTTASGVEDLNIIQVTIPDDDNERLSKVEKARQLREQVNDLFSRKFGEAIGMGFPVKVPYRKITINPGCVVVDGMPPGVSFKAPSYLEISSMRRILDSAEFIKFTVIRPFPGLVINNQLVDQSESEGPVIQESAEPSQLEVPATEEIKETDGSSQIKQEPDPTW
UniProt P55263: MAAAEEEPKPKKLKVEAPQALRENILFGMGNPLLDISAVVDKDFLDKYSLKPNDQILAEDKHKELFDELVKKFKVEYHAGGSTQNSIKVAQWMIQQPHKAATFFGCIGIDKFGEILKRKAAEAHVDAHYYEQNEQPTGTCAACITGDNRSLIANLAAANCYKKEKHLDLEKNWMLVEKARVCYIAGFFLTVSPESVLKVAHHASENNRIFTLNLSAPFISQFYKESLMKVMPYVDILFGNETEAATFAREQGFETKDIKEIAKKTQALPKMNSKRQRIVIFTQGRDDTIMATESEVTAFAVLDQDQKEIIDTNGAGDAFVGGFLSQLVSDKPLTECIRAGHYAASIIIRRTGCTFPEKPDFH
UniProt P56199, whole entry: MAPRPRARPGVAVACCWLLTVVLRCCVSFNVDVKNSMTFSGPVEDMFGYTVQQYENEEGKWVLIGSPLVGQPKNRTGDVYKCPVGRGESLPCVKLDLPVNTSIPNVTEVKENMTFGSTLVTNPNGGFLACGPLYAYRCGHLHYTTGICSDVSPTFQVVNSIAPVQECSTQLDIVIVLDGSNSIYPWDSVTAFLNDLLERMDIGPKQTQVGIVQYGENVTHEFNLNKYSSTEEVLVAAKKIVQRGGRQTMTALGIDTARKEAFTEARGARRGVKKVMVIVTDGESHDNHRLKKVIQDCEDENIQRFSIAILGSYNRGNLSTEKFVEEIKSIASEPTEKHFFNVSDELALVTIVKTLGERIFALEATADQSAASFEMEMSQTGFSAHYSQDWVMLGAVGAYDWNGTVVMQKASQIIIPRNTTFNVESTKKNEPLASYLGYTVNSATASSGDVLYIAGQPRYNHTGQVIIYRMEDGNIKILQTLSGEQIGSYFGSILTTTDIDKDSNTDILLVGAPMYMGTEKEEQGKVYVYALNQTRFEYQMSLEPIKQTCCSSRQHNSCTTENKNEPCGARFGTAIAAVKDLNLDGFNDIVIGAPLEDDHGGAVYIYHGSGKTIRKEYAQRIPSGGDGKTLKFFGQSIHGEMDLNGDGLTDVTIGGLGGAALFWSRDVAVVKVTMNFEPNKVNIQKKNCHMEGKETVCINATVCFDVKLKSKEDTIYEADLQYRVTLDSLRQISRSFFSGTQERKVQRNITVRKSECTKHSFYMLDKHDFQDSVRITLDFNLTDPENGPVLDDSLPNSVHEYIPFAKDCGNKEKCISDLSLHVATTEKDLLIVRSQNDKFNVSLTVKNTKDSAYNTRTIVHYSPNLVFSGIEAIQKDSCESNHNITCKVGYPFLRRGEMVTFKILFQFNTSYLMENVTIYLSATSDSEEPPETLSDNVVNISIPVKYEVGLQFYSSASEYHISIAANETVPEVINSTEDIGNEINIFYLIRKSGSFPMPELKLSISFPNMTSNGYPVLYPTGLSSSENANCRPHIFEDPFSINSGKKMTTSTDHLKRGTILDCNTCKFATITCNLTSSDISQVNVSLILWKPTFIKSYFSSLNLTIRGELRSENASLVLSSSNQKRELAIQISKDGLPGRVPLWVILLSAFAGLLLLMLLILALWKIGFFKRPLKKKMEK
UniProt P68402: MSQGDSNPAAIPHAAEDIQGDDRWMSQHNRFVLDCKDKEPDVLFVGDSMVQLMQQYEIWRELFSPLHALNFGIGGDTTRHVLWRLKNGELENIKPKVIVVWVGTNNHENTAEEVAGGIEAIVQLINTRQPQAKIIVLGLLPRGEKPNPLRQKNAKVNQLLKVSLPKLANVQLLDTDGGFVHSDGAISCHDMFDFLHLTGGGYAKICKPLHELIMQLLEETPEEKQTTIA

Row | Target | NP40-soluble protein abundance (concentration: 0.1mM) | NP40-soluble protein abundance (concentration: 0.5mM) | NP40-soluble protein abundance (concentration: 1mM) | NP40-soluble protein abundance (concentration: 2mM) | NP40-soluble protein abundance (concentration: 4mM) | NP40-soluble protein abundance (concentration: 6mM) | NP40-soluble protein abundance (concentration: 8mM) | NP40-soluble protein abundance (concentration: 10mM)
1 | UniProt P60953 | 0.87 ± 0.13 | 0.935 ± 0.12 | 0.871 ± 0.13 | 0.831 ± 0.12 | 0.79 ± 0.13 | 0.813 ± 0.11 | 0.812 ± 0.1 | 0.816 ± 0.12
2 | UniProt P78347 and related entries | 1 ± 0.0066 | 1.01 ± 0.022 | 0.989 ± 0.013 | 0.997 ± 0.021 | 1.05 ± 0.021 | 1.03 ± 0.044 | 1.05 ± 0.058 | 1.02 ± 0.025
3 | UniProt P55263 and related entries | 0.987 ± 0.015 | 0.948 ± 0.02 | 0.927 ± 0.041 | 0.882 ± 0.043 | 0.861 ± 0.052 | 0.882 ± 0.047 | 0.866 ± 0.068 | 0.797 ± 0.08
4 | ITGA1 (UniProt P56199) | 1.04 ± 0.15 | 0.944 ± 0.1 | 1.04 ± 0.2 | 1.07 ± 0.21 | 1.03 ± 0.19 | 1.02 ± 0.14 | 0.943 ± 0.19 | 1.01 ± 0.14
5 | PAFAH1B2 (UniProt P68402) | 0.948 ± 0.021 | 0.932 ± 0.056 | 0.866 ± 0.058 | 0.868 ± 0.053 | 0.8194 ± 0.0068 | 0.851 ± 0.021 | 0.776 ± 0.058 | 0.811 ± 0.047
